Assay results as given in article PMC7872283.
These are yes or no findings as the source states them, for the method shown. In cells and extracts the contact can be indirect. Some binding calls cover weakened binding; strength is not graded here. For some of these results: Tags and fused reporters may be left off the sequences shown.

Chains of the proteins cited; added tags and fusions are not shown.
UniProt P09874: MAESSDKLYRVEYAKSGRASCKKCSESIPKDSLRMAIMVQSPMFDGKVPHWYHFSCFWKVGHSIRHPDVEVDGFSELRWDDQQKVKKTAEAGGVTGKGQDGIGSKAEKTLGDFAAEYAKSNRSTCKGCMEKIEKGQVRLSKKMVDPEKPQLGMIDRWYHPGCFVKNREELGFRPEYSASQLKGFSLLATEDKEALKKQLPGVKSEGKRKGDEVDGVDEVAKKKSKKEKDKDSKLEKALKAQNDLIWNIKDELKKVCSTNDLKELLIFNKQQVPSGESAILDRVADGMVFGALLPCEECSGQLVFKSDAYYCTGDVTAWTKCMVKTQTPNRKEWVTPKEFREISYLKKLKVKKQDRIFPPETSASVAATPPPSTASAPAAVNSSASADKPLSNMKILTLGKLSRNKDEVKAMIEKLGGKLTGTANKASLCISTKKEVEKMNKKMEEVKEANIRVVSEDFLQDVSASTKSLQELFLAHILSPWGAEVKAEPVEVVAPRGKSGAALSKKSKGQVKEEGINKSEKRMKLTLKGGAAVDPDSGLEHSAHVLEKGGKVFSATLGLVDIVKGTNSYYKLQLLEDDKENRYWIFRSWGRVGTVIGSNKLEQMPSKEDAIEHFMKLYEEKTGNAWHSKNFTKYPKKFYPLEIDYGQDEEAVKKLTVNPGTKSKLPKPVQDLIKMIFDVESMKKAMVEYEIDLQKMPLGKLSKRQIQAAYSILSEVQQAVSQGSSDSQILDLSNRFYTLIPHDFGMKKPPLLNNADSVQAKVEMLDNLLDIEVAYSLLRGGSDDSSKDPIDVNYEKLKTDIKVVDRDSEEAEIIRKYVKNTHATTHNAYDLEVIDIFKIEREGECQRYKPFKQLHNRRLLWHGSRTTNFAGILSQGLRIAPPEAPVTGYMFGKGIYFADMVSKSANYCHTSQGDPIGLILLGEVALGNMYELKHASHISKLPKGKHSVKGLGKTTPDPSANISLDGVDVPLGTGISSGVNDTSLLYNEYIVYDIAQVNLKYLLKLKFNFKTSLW

Key:
Experiment in all cases: co-IP
[1] = target: endogenous poly(ADP-ribose) polymerase 1 (PARP1) (human (endogenous in HEK293T)) (UniProt P09874)
[2] = target: T1, FLAG-tagged checkpoint with FHA and RING finger domains (CHFR) (UniProt Q96EP1)
T1 sequence: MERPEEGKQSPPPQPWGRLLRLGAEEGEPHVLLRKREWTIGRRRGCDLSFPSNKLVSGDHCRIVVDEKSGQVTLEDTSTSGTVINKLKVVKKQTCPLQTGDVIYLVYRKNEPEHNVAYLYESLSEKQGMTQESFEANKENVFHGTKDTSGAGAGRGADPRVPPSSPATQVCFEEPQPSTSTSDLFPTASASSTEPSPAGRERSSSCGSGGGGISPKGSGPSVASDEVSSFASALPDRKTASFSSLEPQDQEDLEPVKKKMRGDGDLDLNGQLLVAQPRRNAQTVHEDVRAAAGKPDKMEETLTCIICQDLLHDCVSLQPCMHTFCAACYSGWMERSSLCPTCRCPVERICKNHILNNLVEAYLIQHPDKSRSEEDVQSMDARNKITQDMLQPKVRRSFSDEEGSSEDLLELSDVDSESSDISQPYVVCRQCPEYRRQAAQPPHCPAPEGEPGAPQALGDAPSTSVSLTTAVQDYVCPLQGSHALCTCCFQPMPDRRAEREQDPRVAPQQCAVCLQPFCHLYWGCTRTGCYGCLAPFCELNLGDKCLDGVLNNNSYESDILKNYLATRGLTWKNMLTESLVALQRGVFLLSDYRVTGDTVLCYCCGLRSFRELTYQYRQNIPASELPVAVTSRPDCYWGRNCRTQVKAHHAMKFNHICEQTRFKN

[3] = target: T2, FLAG-tagged ring finger protein 144A (RNF144A) (human (cDNA of BC-3 cells)) (UniProt P50876)
T2 sequence: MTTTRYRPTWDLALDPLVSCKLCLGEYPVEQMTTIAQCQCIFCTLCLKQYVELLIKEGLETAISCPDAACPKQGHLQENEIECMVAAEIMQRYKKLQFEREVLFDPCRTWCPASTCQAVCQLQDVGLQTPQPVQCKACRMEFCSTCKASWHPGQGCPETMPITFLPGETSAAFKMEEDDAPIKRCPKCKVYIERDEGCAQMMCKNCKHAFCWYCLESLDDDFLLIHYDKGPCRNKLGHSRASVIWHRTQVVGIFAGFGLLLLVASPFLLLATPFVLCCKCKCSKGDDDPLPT

[4] = target: T3, FLAG-tagged ubiquitin-like with PHD and RING finger domains 1 (UHRF1) (UniProt Q96T88)
T3 sequence: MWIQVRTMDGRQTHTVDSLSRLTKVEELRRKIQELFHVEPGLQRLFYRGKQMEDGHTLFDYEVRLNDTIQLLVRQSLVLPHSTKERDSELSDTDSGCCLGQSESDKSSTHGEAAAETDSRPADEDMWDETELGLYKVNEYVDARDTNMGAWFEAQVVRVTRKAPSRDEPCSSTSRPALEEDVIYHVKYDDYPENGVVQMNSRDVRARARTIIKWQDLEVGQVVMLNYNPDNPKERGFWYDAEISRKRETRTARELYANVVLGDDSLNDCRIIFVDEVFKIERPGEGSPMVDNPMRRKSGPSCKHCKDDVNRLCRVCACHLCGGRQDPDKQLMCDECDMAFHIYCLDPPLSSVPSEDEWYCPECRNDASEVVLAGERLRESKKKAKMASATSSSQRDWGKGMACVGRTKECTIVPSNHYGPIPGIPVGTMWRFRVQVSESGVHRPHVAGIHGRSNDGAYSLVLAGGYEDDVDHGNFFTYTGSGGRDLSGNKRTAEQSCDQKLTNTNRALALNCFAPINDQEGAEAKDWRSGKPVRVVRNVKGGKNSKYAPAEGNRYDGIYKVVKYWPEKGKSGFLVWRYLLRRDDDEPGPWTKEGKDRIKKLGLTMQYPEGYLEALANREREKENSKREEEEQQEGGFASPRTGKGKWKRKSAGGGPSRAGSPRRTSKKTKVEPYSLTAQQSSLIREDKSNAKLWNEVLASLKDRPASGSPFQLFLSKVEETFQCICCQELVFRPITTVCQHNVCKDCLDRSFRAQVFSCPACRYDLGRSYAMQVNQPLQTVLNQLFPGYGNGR

binding [2] | binding [3] | binding [4] | Substance | binding [1]
 |  |  | FLAG-tagged CHFR I306A (from UniProt Q96EP1 1-664) (enzyme) | binds
binds | binds | binds | endogenous poly(ADP-ribose) polymerase 1 (PARP1) (from UniProt P09874 1-1014) | 
